# Experimental data from the supplement of paper PMC8728848.
# This is one part of the list.
# B1: Langerin K299A/K313A (Homo sapiens), Q9UJ71 (protein)
# chain: STLNAQIPELKSDLEKASALNTKIRALQGSLENMSKLLKRQNDILQVVSQGWKYFKGNFYYFSLIPKTWYSAEQFCVSRNSHLTSVTSESEQEFLYKTAGGLIYWIGLTKAGMEGDWSWVDDTPFNKVQSARFWIPGEPNNAGNNEHCGNIAAPSLQAWNDAPCDATFLFICKRPYVPSEP
# Legend:
# Assay in all cases: glycan array binding signal (z-score within array); higher = stronger binding
# Settings in all cases: glycan notation: IUPAC condensed, linker removed
# [1] = target: Gal(b1-4)GlcNAc(b1-3)Gal(b1-4)GlcNAc(b1-2)[Gal(b1-4)GlcNAc(b1-3)Gal(b1-4)GlcNAc(b1-6)]Man(a1-6)[Gal(b1-4)GlcNAc(b1-3)Gal(b1-4)GlcNAc(b1-2)Man(a1-3)]Man(b1-4)GlcNAc(b1-4)GlcNAc
# Summary of the method: (§1)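 Glycan array data were curated from 3228 arrays in the Consortium for Functional Glycomics database and kept only where the protein sequence was available. Glycan names were converted to IUPAC-condensed notation, and columns mapping to the same glycan were averaged. The binding signal is a within-array Z-score, averaged across arrays of the same protein sequence at different concentrations or buffers and across linkers. Negative Z-scores can be read as non-binding.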
# [2] = target: Gal(b1-4)GlcNAc(b1-3)Gal(b1-4)GlcNAc(b1-2)[Gal(b1-4)GlcNAc(b1-3)Gal(b1-4)GlcNAc(b1-6)]Man(a1-6)[Gal(b1-4)GlcNAc(b1-3)Gal(b1-4)GlcNAc(b1-2)Man(a1-3)]Man(b1-4)GlcNAc(b1-4)[Fuc(a1-6)]GlcNAc
# Summary of the method: as §1
# [3] = target: Gal(b1-4)GlcNAc(b1-3)Gal(b1-4)GlcNAc(b1-3)Gal(b1-4)GlcNAc
# Summary of the method: as §1
# [4] = target: Gal(b1-4)GlcNAc(b1-3)Gal(b1-4)GlcNAc(b1-3)Gal(b1-4)GlcNAc(b1-2)Man(a1-3)[Gal(b1-4)GlcNAc(b1-3)Gal(b1-4)GlcNAc(b1-3)Gal(b1-4)GlcNAc(b1-2)Man(a1-6)]Man(b1-4)GlcNAc(b1-4)GlcNAc
# Summary of the method: as §1
# [5] = target: Gal(b1-4)GlcNAc(b1-3)Gal(b1-4)GlcNAc(b1-3)Gal(b1-4)GlcNAc(b1-2)Man(a1-3)[Gal(b1-4)GlcNAc(b1-3)Gal(b1-4)GlcNAc(b1-3)Gal(b1-4)GlcNAc(b1-2)Man(a1-6)]Man(b1-4)GlcNAc(b1-4)[Fuc(a1-6)]GlcNAc
# Summary of the method: as §1
# [6] = target: Gal(b1-4)GlcNAc(b1-3)Gal(b1-4)GlcNAc(b1-3)Gal(b1-4)GlcNAc(b1-2)[Gal(b1-4)GlcNAc(b1-3)Gal(b1-4)GlcNAc(b1-3)Gal(b1-4)GlcNAc(b1-6)]Man(a1-6)[Gal(b1-4)GlcNAc(b1-3)Gal(b1-4)GlcNAc(b1-3)Gal(b1-4)GlcNAc(b1-2)Man(a1-3)]Man(b1-4)GlcNAc(b1-4)[Fuc(a1-6)]GlcNAc
# Summary of the method: as §1
# [7] = target: Gal(b1-4)GlcNAc(b1-3)Gal(b1-4)GlcNAc(b1-3)Gal(b1-4)GlcNAc(b1-3)Gal(b1-4)GlcNAc(b1-2)Man(a1-3)[Gal(b1-4)GlcNAc(b1-3)Gal(b1-4)GlcNAc(b1-3)Gal(b1-4)GlcNAc(b1-3)Gal(b1-4)GlcNAc(b1-2)Man(a1-6)]Man(b1-4)GlcNAc(b1-4)GlcNAc
# Summary of the method: as §1
# [8] = target: Gal(b1-4)GlcNAc(b1-3)Gal(b1-4)GlcNAc(b1-3)Gal(b1-4)GlcNAc(b1-3)Gal(b1-4)GlcNAc(b1-2)Man(a1-3)[Gal(b1-4)GlcNAc(b1-3)Gal(b1-4)GlcNAc(b1-3)Gal(b1-4)GlcNAc(b1-3)Gal(b1-4)GlcNAc(b1-2)Man(a1-6)]Man(b1-4)GlcNAc(b1-4)[Fuc(a1-6)]GlcNAc
# Summary of the method: as §1
# [9] = target: Gal(b1-4)GlcNAc(b1-3)Gal(b1-4)GlcNAc(b1-3)Gal(b1-4)GlcNAc(b1-3)Gal(b1-4)GlcNAc(b1-2)[Gal(b1-4)GlcNAc(b1-3)Gal(b1-4)GlcNAc(b1-3)Gal(b1-4)GlcNAc(b1-3)Gal(b1-4)GlcNAc(b1-6)]Man(a1-6)[Gal(b1-4)GlcNAc(b1-3)Gal(b1-4)GlcNAc(b1-3)Gal(b1-4)GlcNAc(b1-3)Gal(b1-4)GlcNAc(b1-2)Man(a1-3)]Man(b1-4)GlcNAc(b1-4)[Fuc(a1-6)]GlcNAc
# Summary of the method: as §1
# [10] = target: Gal(b1-4)GlcNAc(b1-3)Gal(b1-4)GlcNAc(b1-3)Gal(b1-4)GlcNAc(b1-3)Gal(b1-4)GlcNAc(b1-3)Gal(b1-4)GlcNAc(b1-2)Man(a1-3)[Gal(b1-4)GlcNAc(b1-3)Gal(b1-4)GlcNAc(b1-3)Gal(b1-4)GlcNAc(b1-3)Gal(b1-4)GlcNAc(b1-3)Gal(b1-4)GlcNAc(b1-2)Man(a1-6)]Man(b1-4)GlcNAc(b1-4)GlcNAc
# Summary of the method: as §1
# [11] = target: Gal(b1-4)GlcNAc(b1-3)Gal(b1-4)GlcNAc(b1-3)Gal(b1-4)GlcNAc(b1-3)Gal(b1-4)GlcNAc(b1-3)Gal(b1-4)GlcNAc(b1-2)Man(a1-3)[Gal(b1-4)GlcNAc(b1-3)Gal(b1-4)GlcNAc(b1-3)Gal(b1-4)GlcNAc(b1-3)Gal(b1-4)GlcNAc(b1-3)Gal(b1-4)GlcNAc(b1-2)Man(a1-6)]Man(b1-4)GlcNAc(b1-4)[Fuc(a1-6)]GlcNAc
# Summary of the method: as §1
# [12] = target: Gal(b1-4)GlcNAc(b1-3)Gal(b1-4)GlcNAc(b1-3)Gal(b1-4)GlcNAc(b1-3)Gal(b1-4)GlcNAc(b1-3)Gal(b1-4)GlcNAc(b1-2)[Gal(b1-4)GlcNAc(b1-3)Gal(b1-4)GlcNAc(b1-3)Gal(b1-4)GlcNAc(b1-3)Gal(b1-4)GlcNAc(b1-3)Gal(b1-4)GlcNAc(b1-6)]Man(a1-6)[Gal(b1-4)GlcNAc(b1-3)Gal(b1-4)GlcNAc(b1-3)Gal(b1-4)GlcNAc(b1-3)Gal(b1-4)GlcNAc(b1-3)Gal(b1-4)GlcNAc(b1-2)Man(a1-3)]Man(b1-4)GlcNAc(b1-4)[Fuc(a1-6)]GlcNAc
# Summary of the method: as §1
# [13] = target: Gal(b1-4)GlcNAc(b1-3)Gal(b1-4)GlcNAc(b1-3)Gal(b1-4)GlcNAc(b1-3)Gal(b1-4)GlcNAc(b1-3)Gal(b1-4)GlcNAc(b1-3)Gal(b1-4)GlcNAc(b1-2)Man(a1-3)[Gal(b1-4)GlcNAc(b1-3)Gal(b1-4)GlcNAc(b1-3)Gal(b1-4)GlcNAc(b1-3)Gal(b1-4)GlcNAc(b1-3)Gal(b1-4)GlcNAc(b1-3)Gal(b1-4)GlcNAc(b1-2)Man(a1-6)]Man(b1-4)GlcNAc(b1-4)GlcNAc
# Summary of the method: as §1
# [14] = target: Gal(b1-4)GlcNAc(b1-3)Gal(b1-4)GlcNAc(b1-3)GalNAc
# Summary of the method: as §1
# [15] = target: Gal(b1-4)GlcNAc(b1-3)Gal(b1-4)GlcNAc(b1-3)[Gal(b1-4)GlcNAc(b1-3)Gal(b1-4)GlcNAc(b1-6)]GalNAc
# Summary of the method: as §1
# [16] = target: Gal(b1-4)GlcNAc(b1-3)Gal(b1-4)GlcNAc(b1-6)[Gal(b1-3)]GalNAc
# Summary of the method: as §1
# [17] = target: Gal(b1-4)GlcNAc(b1-3)Gal(b1-4)[Fuc(a1-3)]GlcNAc(b1-3)Gal(b1-4)[Fuc(a1-3)]GlcNAc
# Summary of the method: as §1
# [18] = target: Gal(b1-4)GlcNAc(b1-3)GalNAc
# Summary of the method: as §1
# [19] = target: Gal(b1-4)GlcNAc(b1-3)[Fuc(a1-3)GlcNAc(b1-6)]Gal(b1-4)Glc
# Summary of the method: as §1
# [20] = target: Gal(b1-4)GlcNAc(b1-3)[Gal(b1-4)GlcNAc(b1-6)]Gal(b1-4)GlcNAc
# Summary of the method: as §1
# [21] = target: Gal(b1-4)GlcNAc(b1-3)[GlcNAc(b1-6)]Gal(b1-4)GlcNAc
# Summary of the method: as §1
# [22] = target: Gal(b1-4)GlcNAc(b1-6)Gal(b1-4)GlcNAc
# Summary of the method: as §1
# [23] = target: Gal(b1-4)GlcNAc(b1-6)GalNAc
# Summary of the method: as §1
# [24] = target: Gal(b1-4)GlcNAc(b1-6)[Gal(b1-3)]GalNAc
# Summary of the method: as §1
# [25] = target: Gal(b1-4)GlcNAc(b1-6)[Gal(b1-4)GlcNAc(b1-3)]GalNAc
# Summary of the method: as §1
# Gal(b1-4)GlcNAc6P = target: Gal(b1-4)GlcNAc6P
# Summary of the method: as §1
# Gal(b1-6)Gal = target: Gal(b1-6)Gal
# Summary of the method: as §1
# Gal3S(b1-3)GalNAc = target: Gal3S(b1-3)GalNAc
# Summary of the method: as §1
# Gal3S(b1-3)GlcNAc = target: Gal3S(b1-3)GlcNAc
# Summary of the method: as §1
# [26] = target: Gal3S(b1-3)[Fuc(a1-4)]GlcNAc
# Summary of the method: as §1
# Gal3S(b1-4)Glc = target: Gal3S(b1-4)Glc
# Summary of the method: as §1
# Gal3S(b1-4)Glc6S = target: Gal3S(b1-4)Glc6S
# Summary of the method: as §1
# Gal3S(b1-4)GlcNAc = target: Gal3S(b1-4)GlcNAc
# Summary of the method: as §1
# [27] = target: Gal3S(b1-4)[Fuc(a1-3)]Glc6S
# Summary of the method: as §1
# [28] = target: Gal3S(b1-4)[Fuc(a1-3)]GlcNAc
# Summary of the method: as §1
# [29] = target: Gal3S(b1-4)[Fuc(a1-3)]GlcNAc6S
# Summary of the method: as §1
# Gal3S4S(b1-4)GlcNAc = target: Gal3S4S(b1-4)GlcNAc
# Summary of the method: as §1
# Gal3S6S(b1-4)GlcNAc = target: Gal3S6S(b1-4)GlcNAc
# Summary of the method: as §1
# Gal3S6S(b1-4)GlcNAc6S = target: Gal3S6S(b1-4)GlcNAc6S
# Summary of the method: as §1
# Gal4S(b1-4)GlcNAc = target: Gal4S(b1-4)GlcNAc
# Summary of the method: as §1
# Gal4S6S(b1-4)GlcNAc = target: Gal4S6S(b1-4)GlcNAc
# Summary of the method: as §1
# Gal6P(b1-4)GlcNAc = target: Gal6P(b1-4)GlcNAc
# Summary of the method: as §1
# Gal6S(b1-3)GlcNAc = target: Gal6S(b1-3)GlcNAc
# Summary of the method: as §1
# Gal6S(b1-3)GlcNAc6S = target: Gal6S(b1-3)GlcNAc6S
# Summary of the method: as §1
# Gal6S(b1-4)Glc = target: Gal6S(b1-4)Glc
# Summary of the method: as §1
binder,measurement,setting,value
B1,glycan array binding signal (z-score),[1],1.86
same,glycan array binding signal (z-score),[2],2.52
same,glycan array binding signal (z-score),[3],-0.541
same,glycan array binding signal (z-score),[4],2.42
same,glycan array binding signal (z-score),[5],1.46
same,glycan array binding signal (z-score),[6],-0.105
same,glycan array binding signal (z-score),[7],1.26
same,glycan array binding signal (z-score),[8],3.97
same,glycan array binding signal (z-score),[9],3.09
same,glycan array binding signal (z-score),[10],1.71
same,glycan array binding signal (z-score),[11],-0.369
same,glycan array binding signal (z-score),[12],1.6
same,glycan array binding signal (z-score),[13],1.04
same,glycan array binding signal (z-score),[14],-0.112
same,glycan array binding signal (z-score),[15],1.45
same,glycan array binding signal (z-score),[16],1.47
same,glycan array binding signal (z-score),[17],0.704
same,glycan array binding signal (z-score),[18],-0.649
same,glycan array binding signal (z-score),[19],-1.16
same,glycan array binding signal (z-score),[20],0.398
same,glycan array binding signal (z-score),[21],-0.968
same,glycan array binding signal (z-score),[22],0.093
same,glycan array binding signal (z-score),[23],-0.439
same,glycan array binding signal (z-score),[24],-0.626
same,glycan array binding signal (z-score),[25],-0.711
same,glycan array binding signal (z-score),Gal(b1-4)GlcNAc6P,0.224
same,glycan array binding signal (z-score),Gal(b1-6)Gal,0.579
same,glycan array binding signal (z-score),Gal3S(b1-3)GalNAc,-0.643
same,glycan array binding signal (z-score),Gal3S(b1-3)GlcNAc,0.369
same,glycan array binding signal (z-score),[26],0.975
same,glycan array binding signal (z-score),Gal3S(b1-4)Glc,-0.138
same,glycan array binding signal (z-score),Gal3S(b1-4)Glc6S,-0.193
same,glycan array binding signal (z-score),Gal3S(b1-4)GlcNAc,0.073
same,glycan array binding signal (z-score),[27],5.35
same,glycan array binding signal (z-score),[28],-0.817
same,glycan array binding signal (z-score),[29],0.871
same,glycan array binding signal (z-score),Gal3S4S(b1-4)GlcNAc,-0.877
same,glycan array binding signal (z-score),Gal3S6S(b1-4)GlcNAc,-0.279
same,glycan array binding signal (z-score),Gal3S6S(b1-4)GlcNAc6S,0.14
same,glycan array binding signal (z-score),Gal4S(b1-4)GlcNAc,-0.751
same,glycan array binding signal (z-score),Gal4S6S(b1-4)GlcNAc,-1.13
same,glycan array binding signal (z-score),Gal6P(b1-4)GlcNAc,0.32
same,glycan array binding signal (z-score),Gal6S(b1-3)GlcNAc,-0.241
same,glycan array binding signal (z-score),Gal6S(b1-3)GlcNAc6S,-0.479
same,glycan array binding signal (z-score),Gal6S(b1-4)Glc,-0.116

# Nothing new here: an excerpt of the list.
binder,measurement,setting,value
B1,glycan array binding signal (z-score),Gal(b1-6)Gal,0.579
same,glycan array binding signal (z-score),Gal3S(b1-3)GalNAc,-0.643
same,glycan array binding signal (z-score),Gal3S(b1-3)GlcNAc,0.369
